From patent US10933059B2, “Combination, application thereof and treatment method” (KANGPU BIOPHARMACEUTICALS, LTD., priority 2016, dated 2021)
“And” between values parts separate entries of the source, which are not always exact repeats. Equal entries are not always repeated. At least one read-out could not be matched to a standard name with certainty.

Test system: Vcap cells
Test: CTG cell proliferation assay on Vcap cells (compounds alone or in combination, 5 days)
Format: cell-based
Conditions: tested compound alone
Method: In vitro test of the inhibition effect of the compound in combination with androgen receptor pathway modulators on the prostate cancer cell proliferation.
Inhibition effect of the compounds such as B101, B102, B103, B104, B105, B106, C111 and the like, androgen receptor pathway modulators, hormone compounds, alone or in combination with each other on the prostate cancer cell proliferation were tested on Vcap cells (androgen receptor (+) prostate cancer cells) (ATCC, catalogue number CRL-2876). The specific experimental operation was as follows: 5×10^3 Vcap cells per well were inoculated into 96-well plates with transparent bottom and white wall (Corning, catalogue number CLS3903) containing the specific medium, and were cultured in a 37° C., 5% CO2 incubator for 24 hours. The tested compounds and the androgen receptor pathway modulators were prepared to a 150 mM stocking solution with DMSO (Sigma, catalogue number 276855), diluted with culture medium to the desired concentrations (the final concentration of DMSO is 0.2%), and then added to each well, 2 wells/concentration, followed by being incubated in a 37° C., 5% CO2 incubator for 5 days. The tested compounds were used alone or in combination with other androgen receptor pathway modulators and/or hormone compounds respectively. […] After that, 100 μl of CellTiter-Glo® cell viability assay reagent (Promega, catalogue number G7570) was added to each well and mixed well on a vibrator for 10 minutes to induce cell lysis. The 96-well plate was placed at room temperature for 10 minutes, so as to stabilize its luminescence signal. A white bottom membrane was pasted on the bottom of the plate and the plate was tested using EnSpire.

| SMILES | Survival rate of Vcap cells (1 μM) | Survival rate of Vcap cells (0.1 μM) | Survival rate of Vcap cells (10 μM) |
| --- | --- | --- | --- |
| CC(=O)O[C@H]1CC[C@@]2(C)C(=CC[C@@H]3[C@@H]2CC[C@]2(C)C(c4cccnc4)=CC[C@@H]32)C1 [Abiraterone acetate, reference compound] | 97.0% | – | – |
| Nc1cc(F)cc2c1CN(C1CCC(=O)NC1=O)C2=O (stereo not shown) [B101] | 71.1% and 65.4% and 77.9% | 81.7% and 83.3% | 65.8% and 73.3% |
| [2H][C@]1(N2Cc3c(N)cc(F)cc3C2=O)CCC(=O)NC1=O [B105] | 69.7% and 72.5% and 79.1% | 77.9% and 81.5% | 65.5% and 80.0% |
| [2H][C@]1(N2Cc3c(OCc4ccc(CN5CCOCC5)cc4F)cccc3C2=O)CCC(=O)NC1=O [C111] | 72.0% and 81.0% | 76.3% | 63.3% |
